Test results reported in PubChem BioAssay AID1259354 (Paczesny and Yang Labs, IUPUI and University of Michigan, 2018).
Where “and” joins values, the source holds several entries; their conditions need not be identical. Identical values can stand only once. Among all 78,000 compounds or so, about 1,800 (2.3%) were called active. The inconclusive results got no clear call from the source; some entries with a clear call stand among them for comparison. No stated cut-off is given here; in the data, active means inhibition above about 30%; inconclusive means mostly about 10% to 28%; inactive means weaker than that.

Sequences of proteins named here, by UniProt entry; tags and fusion partners are left off. A change or cut given only in a name is not applied to a line headed by its entry.
UniProt Q01638: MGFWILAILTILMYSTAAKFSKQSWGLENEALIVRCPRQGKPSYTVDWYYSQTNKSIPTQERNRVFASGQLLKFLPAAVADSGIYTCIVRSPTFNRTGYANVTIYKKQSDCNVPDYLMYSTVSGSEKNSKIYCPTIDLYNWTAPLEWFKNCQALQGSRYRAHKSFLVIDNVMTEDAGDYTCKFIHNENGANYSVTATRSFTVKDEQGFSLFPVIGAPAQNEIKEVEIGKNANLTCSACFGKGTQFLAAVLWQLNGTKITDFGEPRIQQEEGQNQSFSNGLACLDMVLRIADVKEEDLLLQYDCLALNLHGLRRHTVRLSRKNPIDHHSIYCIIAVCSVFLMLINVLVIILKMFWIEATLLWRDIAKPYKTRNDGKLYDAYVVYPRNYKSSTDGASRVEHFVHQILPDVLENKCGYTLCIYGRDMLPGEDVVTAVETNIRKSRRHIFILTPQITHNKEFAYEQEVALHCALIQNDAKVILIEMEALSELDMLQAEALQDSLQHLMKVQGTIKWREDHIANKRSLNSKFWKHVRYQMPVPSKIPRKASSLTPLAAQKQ

biological target: Interleukin-1 receptor-like 1 (Homo sapiens) (UniProt Q01638); assay: blocks human ST2 binding to IL-33, primary screen, biochemical, AlphaLISA (AID 1259354); conditions: AlphaLISA ST2-Fc/biotin-IL-33 interaction, 1 h; at 17 µM, active compounds read high

SMILES	inhibition
CC(C)(C)n1nc2c(c1NC(=O)c1ccc(F)cc1)CS(=O)C2 (centres undefined)	inactive
COC(=O)c1cc(OC)ccc1-c1ccc(NC(C)=O)cc1	inconclusive: 12%
Cc1cccc(-n2cc(CN(C)C(C)C(=O)N(C)C)cn2)c1 (centres undefined)	inconclusive: 14%
O=C(CCC1CCN(Cc2ccc3cccc(F)c3n2)CC1)NCC1CCCO1 (centres undefined)	inconclusive: 11%
O=C(c1ccco1)N1CCN(S(=O)(=O)c2cccc3cccnc23)CC1	inactive
Cc1ccc2nsnc2c1S(=O)(=O)N1C[C@H]2CC=CC[C@H]2C1	inactive
COCc1c(C(=O)N2CCCC3(CN(C)C(=O)O3)C2)noc1C (centres undefined)	inconclusive: 12%
Cc1noc([C@@H]2C[C@H](NC(=O)c3ccc(F)cc3)CN2C)n1	active: 40%
Cc1cc(Cl)cc(Cl)c1CNC(=O)CC1C(=O)NCCN1CC(C)C (centres undefined)	inconclusive: 24%
O=C(Nc1cccc(Cl)c1)c1cc(-c2ccc3c(c2)OCO3)on1	inconclusive: 11%
CCCc1nc(N)c(C#N)c(-c2cccc(Br)c2)c1CC	inactive
CCOC(=O)c1c(C)n(C)c2ccc(OC(=O)c3cccc(OC)c3)cc12	inactive
COc1cccc(Cn2c(CNS(=O)(=O)c3ccc(C)cc3C)nc3cccnc32)c1	inconclusive: 14%
CC(C)CCN1CC(C(=O)NC2CCCCCC2)CC1=O (centres undefined)	inconclusive: 11%
Cc1nc2ccc(CC(=O)N3Cc4cnc(CC(C)C)nc4C3)cc2[nH]1	inactive
O=C1c2ccccc2C(=O)C1(Nc1cccc([N+](=O)[O-])c1)c1ccccc1	inconclusive: 13%
CCC(C)N(Cc1ccc(CO)o1)Cc1ccccc1Cl (centres undefined)	inconclusive: 19%
Cc1nn(Cc2ccc(Cl)cc2)c(C)c1NC(=O)CCCn1nc(C)c([N+](=O)[O-])c1C	inconclusive: 17%
COc1ccc(Cc2c(Cl)nc(SC)nc2Cl)cc1	inconclusive: 13%
Clc1cc(Br)ccc1OCCOCCn1ccnc1	inactive
O=C(c1cn(CC2COc3ccccc3O2)nn1)N1CCC(CN2CCOCC2)CC1 (centres undefined)	inactive
CCCCn1c(CNC(=O)CC)nc2ccccc21	inconclusive: 16%
CC1CCCC(NC(=O)C2(O)c3ccccc3NC(=O)N2c2ccc(Cl)cc2)C1C (centres undefined)	inconclusive: 12%
NNC(=O)COc1ccccc1	inconclusive: 10%

SMILES	inhibition
Cn1c(/C=C/c2ccc3c(c2)OCO3)c([N+](=O)[O-])c(=O)n(C)c1=O	inactive
CCOc1ccc2nc(NC(=O)c3ccc([N+](=O)[O-])cc3)sc2c1	inconclusive: 12%
CCc1ccccc1NC(=O)C(=O)N1[C@@H]2CC[C@H]1CN(C)C(=O)C2	inconclusive: 10%
COC(=O)c1cc(-c2cc(OC)ccc2F)c[nH]1	inactive
CCCCn1c(CN(C)C(C)c2ccccc2OC)cnc1S(=O)(=O)CC (centres undefined)	inconclusive: 10%
Cn1cccc1C(=O)NS(=O)(=O)c1ccccc1Cl	inconclusive: 16%
COc1ccc2cc(C(=O)NC(C)=O)c(=Nc3cccc(C(F)(F)F)c3)oc2c1	inconclusive: 13%
COc1ccc(S(=O)(=O)N2C[C@@H]3C[C@H](C2)c2c(-c4ccc(NC(C)=O)cc4)ccc(=O)n2C3)cc1	inconclusive: 15%
Cc1cccc(C(C(=O)NCC2(CN3CCOCC3)CC2)N(C)C)c1 (centres undefined)	inactive
COC(=O)c1c[nH]n2c(NC3CCCCC3)c(-c3cccs3)nc12	active: 32%
CN(CCCc1nccn1C)Cc1cc2n(n1)CCCNC2	inconclusive: 12%
CCSC1=N/C(=C\c2cccc(F)c2)C(=O)S1	inconclusive: 22%
Cc1cc(N2CCCC(N)CC2)nc(-c2ccccc2)n1 (centres undefined)	inconclusive: 14%
Cn1c2c(c(=O)n(C)c1=O)C(c1ccc([N+](=O)[O-])o1)C1=C(N2)c2ccccc2C1=O (centres undefined)	inactive
CN(Cc1ccccc1)C1CCCN(C(=O)CCc2ccc(F)cc2)C1 (centres undefined)	inconclusive: 15%
CCOC(=O)C1CCCN(S(=O)(=O)N(C)C)C1 (centres undefined)	inactive
CCSc1nc(CC(=O)N(C)Cc2nc(-c3ccncc3)no2)cs1	inconclusive: 16%
OCc1ccnc(-c2cccc(C(F)(F)F)c2)c1	inactive
COc1ccccc1OCCCCOc1ccccc1[N+](=O)[O-]	inconclusive: 11%
O=C(O)CCCC[C@@H]1CCSS1	inactive
Cc1onc(-c2ccccc2)c1C(=O)Nc1cc2cccc([N+](=O)[O-])c2oc1=O	active: 46%
COc1ccc(-n2c(SCC(=O)N3CCCC3)nc3c([nH]c4ccccc43)c2=O)cc1	inconclusive: 11%
CC(C)c1cc(-c2ccc(C(N)=O)cc2)nc(C(F)(F)F)n1	inconclusive: 20%
O=C1CO[C@H]2CN(Cc3ccccc3F)C[C@H]2N1Cc1ccccc1	inconclusive: 13%

SMILES	inhibition
O=[N+]([O-])c1ccc(S(=O)(=O)Nc2ccc(S(=O)(=O)N3CCOCC3)cc2)cc1	inactive
COc1ccc(CC(=O)NCc2cccnc2N(C)C)cc1OC	inconclusive: 17%
CC1(C)[C@H]2CC=C(CCNC3CCN(c4cccc(NC(=O)c5cccnc5)c4)CC3)[C@@H]1C2	inconclusive: 16%
Cc1cc(N2CCN(C)CC2)nc2ccc(NC(=O)c3ccc([N+](=O)[O-])cc3Cl)cc12	inactive
COc1ccc(OC)c(N(CC(=O)N2CCN(C)CC2)S(C)(=O)=O)c1	inactive
CCn1c(CCCNC(C)=O)nc2ccccc21	inactive
Cc1nn(-c2ccccc2)c2c1C(c1ccccc1)C(C#N)=C(N)O2 (centres undefined)	inconclusive: 15%
N#Cc1ccccc1NC(=O)C(Cc1ccc([N+](=O)[O-])cc1)N1C(=O)c2ccccc2C1=O (centres undefined)	inconclusive: 23%
CC1CCc2c(sc(NC(=O)CCCn3cnc([N+](=O)[O-])n3)c2C(N)=O)C1 (centres undefined)	inconclusive: 13%
Cc1ccccc1Cn1c(C)n[nH]c1=O	inactive
COc1cc(NC(=O)N[C@H]2CO[C@H]3[C@@H]2OC[C@@H]3Nc2nccc(-c3cccs3)n2)cc(OC)c1	inactive
CCCn1cnc2cc(NCc3ccccc3OCC)ccc21	inconclusive: 19%
COc1ccc2c(c1)CC/C2=N\OC(=O)c1cc(SC)ccc1Cl	inconclusive: 13%
CCCN(CCC)c1ncnc2c1cnn2-c1ccc(C)cc1C	inconclusive: 12%
COCc1cc(NCc2cccnc2-n2cnc3ccccc32)ncn1	inactive
CC(C)c1ccc(N(C(=O)CCC2CCCCC2)C2C=CS(=O)(=O)C2)cc1 (centres undefined)	inconclusive: 15%
Cc1cc(C)n(CCCC(=O)N2CCC3(CN(C)C(=O)O3)C2)n1 (centres undefined)	inconclusive: 18%
COc1ccc(C(=O)Nc2ccc3n(c2=O)C[C@H]2C[C@@H]3CN(S(=O)(=O)c3ccc(NC(C)=O)cc3)C2)cc1	inconclusive: 20%
Cc1ccc(N2CCn3c2nc2c3c(=O)n(Cc3ccc(F)cc3)c(=O)n2C)cc1	inconclusive: 11%
COc1ccc(-n2c(=O)[nH]cc(C(=O)Nc3ccc(Br)cc3)c2=O)cc1	inactive
CC1(C)CC(C)(c2ccc(Cl)cc2)c2ccccc2N1 (centres undefined)	inconclusive: 24%
Cn1ccn2ncc(C(=O)NCC3OCCc4ccccc43)c12 (centres undefined)	inconclusive: 15%
COc1ccccc1CNC1CCC(C)C1 (centres undefined)	inconclusive: 14%
O=C(CCCCN1Cc2ccccc2C1=O)NC1CCc2ccccc21 (centres undefined)	inactive

SMILES	inhibition
Cc1cc(Nc2ccccc2)nc(Nc2ccc(NC(=O)CCC3CCCCC3)cc2)n1	inconclusive: 14%
COc1cc(OC)c(C2C(C#N)=C(N)Oc3n[nH]c(-c4ccc(C)cc4)c32)cc1OC (centres undefined)	inactive
COc1ccc(CCNC(=O)C2(C)CCC(=O)N2Cc2ccc(F)cc2)cc1OC (centres undefined)	inactive
O[C@@H]1C[C@@H](c2nc(-c3ccc(C(F)(F)F)cc3)no2)N(Cc2ccc(Cl)cc2)C1	inconclusive: 10%
Cc1ccc(N2C(=O)C3[C@H](C2=O)C2c4ccccc4C3(C(=O)O)c3ccccc32)cc1Cl (some centres undefined)	inconclusive: 19%
Cc1cc(C)cc(N2CCC(N3C[C@H](O)[C@@H](N4CCN(C)CC4)C3)CC2)c1	inactive
O=C(Nc1ccc2c(c1)OCO2)c1ccc(Br)cc1F	inconclusive: 15%
COC(=O)c1cc2n(n1)CCN(C(=O)c1nn3cc(C)cnc3c1Cl)C2	inconclusive: 11%
CC1=C(C(=O)N2CCc3c([nH]c4ccccc34)C2)C(c2cccnc2)NC(=O)N1 (centres undefined)	inconclusive: 12%
COc1ccc(N2CCN(CCCNC(=O)c3cccn3-c3nnc(N4CCCCC4)s3)CC2)cc1	active: 31%
Cc1nn(C)cc1-c1c(-c2ccccc2)ncn1C(CC(C)C)c1cccnc1 (centres undefined)	inconclusive: 11%
COc1cc(/C=C2/C(=O)N(c3ccc(F)cc3)N=C2C)ccc1OCc1ccc(F)cc1	inconclusive: 15%
COc1nc2ccccc2cc1-c1cnccc1C	inconclusive: 16%
CN(Cc1ccccc1)c1ncccc1CNC(=O)c1ncoc1C1CC1	inconclusive: 15%
O=C(O)CCN1C(=O)c2ccc(NC(=O)c3ccco3)cc2C1=O	inconclusive: 13%
O=C(NCCCN1CCCCC1)c1cc(-c2ccc(Cl)s2)nc2ccccc12	inconclusive: 15% and inconclusive: 14%
CC(C)Sc1oc(-c2ccco2)nc1S(=O)(=O)c1ccc(F)cc1	inconclusive: 10%
COc1ccc(NC2CCCN(C(=O)CCc3nc4ccccc4s3)C2)cc1OC (centres undefined)	inconclusive: 12%
O=C(O)C1C2C=CC(O2)C1C(=O)Nc1ccc(F)c(Cl)c1 (centres undefined)	inconclusive: 12%
COc1ccc(CN(C)Cc2ccc3ccccc3n2)cc1O	inconclusive: 10%
O=C(NCCCc1nc2ccccc2n1Cc1ccccc1F)c1ccccc1	inactive
COc1ccc(NC(=O)N2CCN(C)CC2)cc1	inactive
